Results are given in words; binding and its absence hold for the method and conditions named. Binding can be weak; no strength is given. For some of these results: Sequences can lack the tags named with a protein. For some of these results: In cells and extracts the contact can be indirect. Values belong to the binder of their own block, whether it stands above or below them.
Columns and labels:
[1] = target: CTB6^K - BD (rice); experiment: two-hybrid; point-to-point; CTB6^K in pGBKT7 (BD), partners in pGADT7 (AD), yeast strain AH109; growth on SD-Trp-Leu-His-Ade at 30 °C
[2] = target: CTB6^T - nLUC (rice); experiment: split reporter; split-LUC complementation; nLUC and cLUC fusions transiently co-expressed in N. benthamiana leaves, 1 mM D-luciferin after 3 days
[3] = target: CTB6^K - nLUC (rice); experiment: as above
[4] = target: CTB6^K - GFP (rice); experiment: co-IP; tagged proteins co-expressed in rice protoplasts; total protein extract incubated with GFP-Nanoab-Agarose beads at 4 °C for 2 h; 50 mM Tris-HCl pH 7.5, 150 mM NaCl, 10 mM MgCl2, 2% NP-40, 1 mM DTT; immunoblot
[5] = target: CTB6^K - YC (rice); experiment: split reporter; BiFC; YC and YN fusions co-transformed into rice protoplasts, YFP signal by confocal microscopy 14-16 h after transfection

B1: CATA - AD (protein, UniProt Q0E4K1 1-492)
chain: MDPCKFRPSSSFDTKTTTTNAGAPVWNDNEALTVGPRGPILLEDYHLIEKVAHFARERIPERVVHARGASAKGFFECTHDVTDITCADFLRSPGAQTPVIVRFSTVIHERGSPETIRDPRGFAVKFYTREGNWDLLGNNFPVFFIRDGIKFPDVIHAFKPNPRSHVQEYWRVFDFLSHHPESLHTFFFLFDDVGIPTDYRHMDGFGVNTYTFVTRDAKARYVKFHWKPTCGVSCLMDDEATLVGGKNHSHATQDLYDSIAAGNFPEWKLFVQVIDPEEEERFDFDPLDDTKTWPEDEVPLRPVGRLVLNRNVDNFFNENEQLAFGPGLVVPGIYYSDDKMLQCRVFAYADTQRYRLGPNYLMLPVNAPKCAHHNNHYDGAMNFMHRDEEVDYYPSRHAPLRHAPPTPITPRPVVGRRQKATIHKQNDFKQPGERYRSWAPDRQERFIRRFAGELAHPKVSPELRAIWVNYLSQCDESLGVKIANRLNVKPSM
- binding [1]: binds

B2: CATB - AD (protein, UniProt Q0D9C4 1-492)
chain: MDPYKHRPSSGSNSTFWTTNSGAPVWNNNSALTVGERGPILLEDYHLIEKLAQFDRERIPERVVHARGASAKGFFEVTHDISHLTCADFLRAPGVQTPVIVRFSTVVHERGSPETLRDPRGFAVKFYTREGNFDLVGNNMPVFFIRDGMKFPDMVHAFKPSPKTNMQENWRIVDFFSHHPESLHMFSFLFDDVGIPLNYRHMEGFGVNTYTLINKDGKPHLVKFHWKPTCGVKCLLDDEAVTVGGTCHSHATKDLTDSIAAGNYPEWKLYIQTIDPDHEDRFDFDPLDVTKTWPEDIIPLQPVGRMVLNKNIDNFFAENEQLAFCPAIIVPGIHYSDDKLLQTRIFSYADTQRHRLGPNYLMLPVNAPKCAYHNNHHDGSMNFMHRDEEVNYFPSRFDAARHAEKVPIPPRVLTGCREKCVIDKENNFQQAGERYRSFDPARQDRFLQRWVDALSDPRITHELRGIWISYWSQCDASLGQKLASRLNLKPNM
- binding [1]: binds

B5: CATA - Myc (protein, UniProt Q0E4K1 1-492)
chain: MDPCKFRPSSSFDTKTTTTNAGAPVWNDNEALTVGPRGPILLEDYHLIEKVAHFARERIPERVVHARGASAKGFFECTHDVTDITCADFLRSPGAQTPVIVRFSTVIHERGSPETIRDPRGFAVKFYTREGNWDLLGNNFPVFFIRDGIKFPDVIHAFKPNPRSHVQEYWRVFDFLSHHPESLHTFFFLFDDVGIPTDYRHMDGFGVNTYTFVTRDAKARYVKFHWKPTCGVSCLMDDEATLVGGKNHSHATQDLYDSIAAGNFPEWKLFVQVIDPEEEERFDFDPLDDTKTWPEDEVPLRPVGRLVLNRNVDNFFNENEQLAFGPGLVVPGIYYSDDKMLQCRVFAYADTQRYRLGPNYLMLPVNAPKCAHHNNHYDGAMNFMHRDEEVDYYPSRHAPLRHAPPTPITPRPVVGRRQKATIHKQNDFKQPGERYRSWAPDRQERFIRRFAGELAHPKVSPELRAIWVNYLSQCDESLGVKIANRLNVKPSM
- binding [4]: binds

B6: CATA - YN (protein, UniProt Q0E4K1 1-492)
chain: MDPCKFRPSSSFDTKTTTTNAGAPVWNDNEALTVGPRGPILLEDYHLIEKVAHFARERIPERVVHARGASAKGFFECTHDVTDITCADFLRSPGAQTPVIVRFSTVIHERGSPETIRDPRGFAVKFYTREGNWDLLGNNFPVFFIRDGIKFPDVIHAFKPNPRSHVQEYWRVFDFLSHHPESLHTFFFLFDDVGIPTDYRHMDGFGVNTYTFVTRDAKARYVKFHWKPTCGVSCLMDDEATLVGGKNHSHATQDLYDSIAAGNFPEWKLFVQVIDPEEEERFDFDPLDDTKTWPEDEVPLRPVGRLVLNRNVDNFFNENEQLAFGPGLVVPGIYYSDDKMLQCRVFAYADTQRYRLGPNYLMLPVNAPKCAHHNNHYDGAMNFMHRDEEVDYYPSRHAPLRHAPPTPITPRPVVGRRQKATIHKQNDFKQPGERYRSWAPDRQERFIRRFAGELAHPKVSPELRAIWVNYLSQCDESLGVKIANRLNVKPSM
- binding [5]: binds

Further lines, results first:

- binding [1]: binds
B3: CATC - AD (protein, UniProt Q10S82 1-492)
chain: MDPYKHRPSSSFNGPLWSTNSGAPVWNNNNSLTVGSRGPILLEDYHLVEKLANFDRERIPERVVHARGASAKGFFEVTHDITHLTCADFLRAPGVQTPVIVRFSTVIHERGSPETLRDPRGFAIKFYTREGNWDLVGNNFPVFFIRDGMKFPDMVHSLKPNPKSHVQENWRILDFFSHHPESLHMFTFLFDDIGIPADYRHMDGSGVNTYTLVNRAGKSHYVKFHWKPTCGVKSLLDDEAVTVGGTNHSHATQDLYDSIAAGNFPEWKLFIQTIDPDHEDRFDFDPLDVTKTWPEDIVPLQPVGRMVLNRNIDNFFSENEQLAFCPGIIVPGIYYSDDKLLQTRIFSYSDTQRHRLGPNYLLLPPNAPKCAHHNNHYDGFMNFMHRDEEVDYFPSRYDPAKHAPRYPIPSATLTGRREKVVIAKENNFKQPGERYRSWDPARQDRFIKRWIDALSDPRLTHEIRSIWLSYWSQADRSLGQKLASRLSAKPSM

- binding [2]: binds
- binding [3]: binds
B4: cLUC - CATA (protein, UniProt Q0E4K1 1-492)
chain: MDPCKFRPSSSFDTKTTTTNAGAPVWNDNEALTVGPRGPILLEDYHLIEKVAHFARERIPERVVHARGASAKGFFECTHDVTDITCADFLRSPGAQTPVIVRFSTVIHERGSPETIRDPRGFAVKFYTREGNWDLLGNNFPVFFIRDGIKFPDVIHAFKPNPRSHVQEYWRVFDFLSHHPESLHTFFFLFDDVGIPTDYRHMDGFGVNTYTFVTRDAKARYVKFHWKPTCGVSCLMDDEATLVGGKNHSHATQDLYDSIAAGNFPEWKLFVQVIDPEEEERFDFDPLDDTKTWPEDEVPLRPVGRLVLNRNVDNFFNENEQLAFGPGLVVPGIYYSDDKMLQCRVFAYADTQRYRLGPNYLMLPVNAPKCAHHNNHYDGAMNFMHRDEEVDYYPSRHAPLRHAPPTPITPRPVVGRRQKATIHKQNDFKQPGERYRSWAPDRQERFIRRFAGELAHPKVSPELRAIWVNYLSQCDESLGVKIANRLNVKPSM
